Data published in article PMC4635203.
Results are given in words; binding and its absence hold for the method and conditions named. Binding calls can cover weak binding; strength is not graded here.

Molecular target: LUZ24 gp4 (yeast two-hybrid bait) (Pseudomonas aeruginosa phage LUZ24)
Assay: two-hybrid; Gal4p-based screen in S. cerevisiae AH109; phage proteins as bait (pGBT9) against a random genomic fragment prey library of P. aeruginosa PAO1; HIS3, ADE2 and MEL1 reporters; reproduced in an independent experiment with fresh yeast cells

B1: MvaT (PA4315) prey fragment, amino acids 1-80 (domain or fragment, UniProt Q9HW86 1-80)
chain: MSLINEYRATEEAIKELQERLKSLEQDDKLKKELEFEEKLRTLMGTYQKSLRDVISLLDPDAKIGKSTRTAKAPAGKRAR
binding: binds
